Results are given in words; binding and its absence hold for the method and conditions named. Some results given as binding are weak or reduced against the parent protein; the word gives no strength.
Target: T1, human anti-Müllerian hormone receptor type II on AMHR2-OVCAR8 cells (human) (UniProt Q16671)
T1 sequence: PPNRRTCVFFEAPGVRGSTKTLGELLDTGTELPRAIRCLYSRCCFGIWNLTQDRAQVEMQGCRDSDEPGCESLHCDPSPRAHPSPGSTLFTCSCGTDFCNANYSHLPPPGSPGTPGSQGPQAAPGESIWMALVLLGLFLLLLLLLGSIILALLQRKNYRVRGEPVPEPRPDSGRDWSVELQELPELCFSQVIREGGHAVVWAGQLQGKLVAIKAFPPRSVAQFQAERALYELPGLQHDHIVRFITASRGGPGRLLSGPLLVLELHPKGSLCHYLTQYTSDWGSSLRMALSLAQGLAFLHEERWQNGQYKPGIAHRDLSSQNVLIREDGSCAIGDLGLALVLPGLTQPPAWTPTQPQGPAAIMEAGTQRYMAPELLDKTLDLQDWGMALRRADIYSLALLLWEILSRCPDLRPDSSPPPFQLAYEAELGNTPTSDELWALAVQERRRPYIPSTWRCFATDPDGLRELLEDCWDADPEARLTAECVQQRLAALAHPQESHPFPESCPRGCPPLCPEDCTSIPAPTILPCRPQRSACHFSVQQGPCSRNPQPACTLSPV
Assay: flow cytometry on cells; competition: recombinant human AMH at increasing doses against the 4D12G1 mAb for binding to AMHR2-OVCAR8 cells; Fc-receptor block; detection with FITC-labeled goat anti-mouse IgG; only the binder purified

B1: recombinant human anti-Müllerian hormone (ligand, UniProt P03971 452-560)
chain: SAGATAADGPCALRELSVDLRAERSVLIPETYQANNCQGVCGWPQSDRNPRYGNHVVLLLKMQVRGAALARPPCCVPTAYAGKLLISLSEERISAHHVPNMVATECGCR
  binding: binds

— publication PMC7244012
